Experiment: Adsorption of PTH1-34 onto HA/TCP granules (UV-Vis spectroscopy at 280 nm)
Format: physicochemical
Details: UV-Vis 280 nm

PTH1-34: truncated parathyroid hormone 1-34, non covalently adsorbed onto ceramic matrix; no fusion peptide needed
amount of PTH1-34 present in the solution adsorbed onto the granules (1.0, 0.5, 0.25, 0.1, 0.05 mg PTH1-34/ml water or buffer mixed with HA/TCP granules): approximately 25%
maximum amount of PTH1-34 on the matrix (HA/TCP granules): 1 mg PTH per 1 g of matrix (HA/TCP)
